Assay results from patent US20260027244A1, “SILICON-BASED FLUORIDE ACCEPTOR GROUPS FOR RADIOPHARMACEUTICALS” (Technische Universität München, priority 2022, published 2026).
Some results were stated once for a whole list of compounds, not compound by compound.

Assay: n-octanol-water partition coefficient (log D7.4)
Assay type: physicochemical
Details: compared to the corresponding (4-SiFA)Bz-conjugates
Experimental: In the development process of alternative SiFA-analogs, the influence of the substitution pattern at the aromatic moiety on lipophilicity is of particular importance. […] Assuming to observe a better differentiation in properties of the various prosthetic groups, investigations were conducted on small model peptides. Corresponding log D7.4-values (n≥8) are depicted in FIG. 3.
Approximately 1 MBq of the [^177Lu]Lu-labeled tracer or 0.5 MBq of the [^18F]F-labeled tracer was dissolved in 1 mL of n-octanol/PBS (v/v=1:1) in a reaction vial (1.5 mL). After vigorous mixing of the suspension for 3 min at rt, the vial was centrifuged at 15000 g for 5 min (Biofuge 15, Heraus Sepatech, Osterode, Germany) and 100 μL aliquots of both layers were measured in a γ-counter. The experiment was repeated (n≥6).

SMILES: C[C@@H](O)[C@H](NC(=O)[C@@H]1CSSC[C@H](NC(=O)[C@@H](Cc2ccccc2)NC(=O)CN2CCN(CC(=O)O)CCN(CC(=O)NCCNC(=O)c3cc(C(=O)O)cc([Si](F)(C(C)(C)C)C(C)(C)C)c3)CCN(CC(=O)O)CC2)C(=O)N[C@@H](Cc2ccc(O)cc2)C(=O)N[C@H](Cc2c[nH]c3ccccc23)C(=O)N[C@@H](CCCCN)C(=O)N[C@@H]([C@@H](C)O)C(=O)N1)C(=O)O [Entry 4, ^natGa-(5-SiFA)Ip-EDA-DOTATATE, metal not drawn]
- gain in hydrophilicity: 1.2-1.5 logarithmic units
